In PMC12518634, “The noncanonical function of liver-type phosphofructokinase potentiates the efficacy of HDAC inhibitors in cancer” (Signal Transduction and Targeted Therapy, 2025):

Experiments:
783C-6 = experiment: High-throughput drug screen, CellTiter-Glo viability, 72 h; assay type: cell-based, human
Protocol: (§1) The cells were seeded and incubated with a gradient of concentrations of drugs for 72 h, after which the cell viability was assessed (Supplementary Fig. 1a). The drug library primarily comprises epigenetic drugs, including HDAC inhibitors, DNA methyltransferase inhibitors, and histone demethylase inhibitors, as well as conventional chemotherapies and kinase inhibitors (Supplementary Fig. 1b and Supplementary Table 1). […] To identify novel therapeutics against CCA, we conducted a high-throughput screen employing PerkinElmer’s integrated robotic Explorer G3 workstations. […] Following dilution to five specified concentrations, drugs were dispensed into 96-well plates in the sequence detailed in Supplementary Fig. 1a. […] We then quantified cell viability via the CellTiter-Glo luminescent assay according to the manufacturer’s protocol. Signal detection was carried out on a Synergy2 plate reader operated by Gen5 software (BioTek). For data processing, the raw luminescence data were processed through the Breeze pipeline for curve fitting, yielding quality control metrics (e.g., Z-factors) and drug response parameters (AUC and DSS), as adapted from previous work.[54] Drug responses were evaluated on the basis of the drug sensitivity score (DSS), and a cutoff of ≥10 was used to define efficacy. […]

1405R3 = experiment: as above; assay type: cell-based; details: Homo sapiens, 1405R3 DSRT analysis, fitted dose-response curve, Min.Conc.tested 1, Max.Conc.tested 10000, GI50
Protocol: as §1

Structure (SMILES) | EC50 (783C-6; Homo sapiens) [nM] | EC50 (1405R3) [nM] | EC50 (783C-6; 783C-6 cells, DSRT analysis, CellTiter-Glo viability, concentrations tested 1 to 10000 (unit inferred), GI50) [nM]
O=C(CCCCCCC(=O)Nc1ccccc1)NO [vorinostat, reference compound] | 867 | 1190 | –
COc1cc2nc(N3CCCC3)nc(NCCCCCN3CCCC3)c2cc1OC [UNC0379] | – | – | 2140
